Laboratory results: article PMC5683655
No constants are given. Whether binding was seen depends on the method and setting. Binding seen in cells or lysates may run through a third protein. Some results given as binding are weak or reduced against the parent protein; the word gives no strength.

Legend:
[1] = target: T1, LIN-37 (C. elegans (endogenous in late embryos)) (UniProt Q23482); assay: co-IP; wild-type (N2) late embryo extracts; anti-EFL-1 or anti-LIN-37 antibody crosslinked to Protein A Dynabeads; 5 mg lysate, 2 hours at 4°C; lysis buffer 25 mM HEPES pH 7.6, 150 mM NaCl, 0.1% Nonidet P-40; western blot
T1 sequence: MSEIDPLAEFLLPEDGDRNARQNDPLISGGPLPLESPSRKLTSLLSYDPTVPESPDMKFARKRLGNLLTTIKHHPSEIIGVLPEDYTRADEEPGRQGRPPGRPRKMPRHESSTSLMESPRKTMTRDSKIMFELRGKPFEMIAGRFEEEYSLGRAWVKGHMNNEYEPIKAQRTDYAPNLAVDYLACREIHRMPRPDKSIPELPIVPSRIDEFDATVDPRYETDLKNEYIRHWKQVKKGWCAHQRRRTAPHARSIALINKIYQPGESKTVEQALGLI

[2] = target: T1, LIN-37 (C. elegans (endogenous in late embryos)); assay: co-IP; lin-35(n745) null (LIN-35 protein null) late embryo extracts; anti-EFL-1 or anti-LIN-37 antibody crosslinked to Protein A Dynabeads; 5 mg lysate, 2 hours at 4°C; lysis buffer 25 mM HEPES pH 7.6, 150 mM NaCl, 0.1% Nonidet P-40; western blot

- binding [1]: binds
- binding [2]: binds
B1: LIN-54 (protein, UniProt Q95QD7 1-435)
chain: MNQGEIVYQDDDDYYDESEIYDNYEEGAEFIEVNGQLVPHNPNLQAQQNRPGTSSMIQQHNRSMEVNQGLVKDEPIDTSSHRVYVPPPRPVQRKLFQPGPSTPGSSQYTVRNLSNLSGSPSMYDRQPASLPRTVQPMGLEMGNSEQRKVYIDMKDHVSHIRLKTKKKVFAPGQRKPCNCTKSQCLKLYCDCFANGEFCRDCNCKDCHNNIEYDSQRSKAIRQSLERNPNAFKPKIGIARGGITDIERLHQKGCHCKKSGCLKNYCECYEAKVPCTDRCKCKGCQNTETYRMTRYKNSGGAVSNTNALMSLTNASSTATPDSGPGSVVTDEHGDDYEDMLLSHKPKVEMDPRRFPWYYMTDEVVEAATMCMVAQAEEALNYEKVQTEDEKLINMEKLVLREFGRCLEQMITNTTELTQDLDAAPTDDIPGPSTSTS
